Patent EP4775225 (dated 2025)

Experiment: general procedure: solution-phase peptide synthesis; HATU/DIEA
Conditions: for conjugation yield: conjugation step; for step yield: late stage modification step

Substance	conjugation yield [%]	step yield [%]
(9H-fluoren-9-yl) methyl (2-((2R,3R)-3-(S)-1-(3R,4S,4S,5S)-4-(S)-2-((S)-2-(dimethylamino)-3-methylbutanamido)-3-methoxymethylbutenyl-methyl-methyl-(methyl) amino)-2-oxoethyl) carbamate	55.3	–
(9H-fluoren-9-yl) methyl ((3R,4R,7R)-7-benzyl-3-((S)-1-((3R,4S,5S)-4-((S)-2-((S)-2-(dimethylamino)-3-methylbutanamido)-N,3-dimethylbutanamido)-3-methoxy-5-methylheptanoyl) pyrrolidin-2-yl)-4,10,10-trimethyl-5,8,16-trioxo-2,13-dioxo-6,9,15-triazaheptadecan-17-yl) carbamate	36.5	–
(9H-fluoren-9-yl) methyl ((3R,4R,7S)-7-benzyl-3-((S)-1-((3R,4S,5S)-4-((S)-2-((S)-2-(dimethylamino)-3-methylbutanamido)-N,3-dimethylbutanamido)-3-methoxy-5-methylheptanoyl) pyrrolidin-2-yl)-4-methyl-5,8,18-trioxo-2,12,15-trioxo-6,9,17-triazacyclononadecyl) carbamate	–	58.0
(9H-fluoren-9-yl) methyl ((3R,4R,7S)-7-benzyl-3-((S)-1-((3R,4S,5S)-4-((S)-2-((S)-2-(dimethylamino)-3-methylbutanamido)-N,3-dimethylbutanamido)-3-methoxy-5-methylheptanoyl) pyrrolidin-2-yl)-4-methyl-5,8,18-trioxo-2,15-dioxo-6,9,17-triazanonadecyl) carbamate	37.9	–
(9H-fluoren-9-yl) methyl ((3R,4R,7S,10R)-7-benzyl-3-((S)-1-((3R,4S,5S)-4-((S)-2-((S)-2-(dimethylamino)-3-methylbutanamido)-N,3-dimethylbutanamido)-3-methoxy-5-methylheptanoyl) pyrrolidin-2-yl)-4-methyl-5,8,16-trioxo-10-phenyl-2,13-dioxa-6,9,15-triazaheptan-17-yl) carbamate	22.1	–
(9H-fluoren-9-yl) methyl (((3R,4R,7R)-7-benzyl-3-(((S)-1-(3-methylbutanamido)-N,3-dimethylbutanamido)-3-methoxy-5-methylheptanoyl) pyrrolidin-2-yl)-4,9-dimethyl-5,8,18-trioxo-2,12,15-trioxo-6,9,17-triazapentadecan-19-yl) carbamate	71.0	–
((S)-N-((3R,4S,55)-1-((S)-2-(((1R,2R)-3-((S)-1-((4-(aminomethyl)cyclohexyl) methyl) amino)-1-oxo-3-phenylpropan-2-yl) amino)-1-methoxy-2-methyl-3-oxopropyl) pyrrolidin-1-yl)-3-methoxy-5-methyl-1-oxoheptan-4-yl)-2-((S)-2-(dimethylamino)-3-methylbutanamido)-N,3-dimethylbutanamide	–	72.3
(S)-N-((3R,4S,5S)-1-((S)-2-((3R,4R,7S)-19-amino-7-benzyl-4-methyl-5,8,18-trioxo-2,15-dioxa-6,9,17-triazanonadecyl-3-yl) pyrrolidin-1-yl)-3-methoxy-5-methyl-1-oxoheptan-4-yl)-2-((S)-2-(dimethylamino)-3-methylbutanamido)-N,3-dimethylbutanamide	–	67.8
(S)-N-((3R,4S,5S)-1-((S)-2-(((1R,2R)-3-((S)-1-((5-aminopentyl) amino)-1-oxo-3-phenylpropan-2-yl) amino)-1-methoxy-2-methyl-3-oxopropyl) pyrrolidin-1-yl)-3-methoxy-5-methyl-1-oxoheptan-4-yl)-2-((S)-2-(dimethylamino)-3-methylbutanamido)-N,3-dimethylbutanamide	–	71.9
N-(3R,4R,7S,22S)-7,22-dibenzyl-3-((S)-1-((3R,4S,5S)-4-((S)-pyrrolidin-2-yl)-4-methyl-5,8,18,21,24,27-hexaoxo-2,12,15-trioxo-6,9,17,20,23,26-hexaazacyclooctacosan-28-yl))-6-(2,5-dioxo-2,5-dihydro-1H-pyrrol-1-yl)hexanamide	79.1	–
N-((3R,4R,7S,22S)-7,22-dibenzyl-3-(S)-1-((3R,4S,5S)-4-(S) pyrrolidin-2-yl)-4-methyl-5,8,18,21,24,27-hexaoxo-2,15-dioxo-6,9,17,20,23,26-hexaazaoctacosan-28-yl)-6-(2,5-dioxo-2,5-dihydro-1H-pyrrol-1-yl)hexanamide	14.0	–
tert-butyl ((3R,4R,7S)-7-benzyl-3-((S)-1-((3R,4S,5S)-4-((S)-2-[(S)-2-(dimethylamino)-3-methylbutanamido]-N,3-dimethylbutanamido)-3-methoxy-5-methylheptanoyl) pyrrolidin-2-yl)-4-methyl-5,8-dioxo-2,12-dioxo-6,9-diazatetradecan-14-yl) carbamate	–	98
